Values of other authors in US20070010548A1, “Compounds having inhibitive activity of phosphatidylinositol 3-kinase and methods of use thereof” (ZENTARIS GmbH, priority 2003, published 2007).
At least one compound was matched to its structure with a doubt left.

System: PI 3-K
Conditions: Wymann et al. 1996; cited from earlier work

In the case of `COC[C@H]1OC(=O)c2coc3c2[C@@]1(C)C1=C(C3=O)[C@@H]2CCC(=O)[C@@]2(C)C[C@H]1OC(C)=O` [wortmannin], the “concentrations needed to inhibit PI 3-Ks” value is listed as 1 to 100 nM.
